Read-outs that look alike come from different tables or passages of the source. These are yes or no findings as the source states them, for the method shown. Binding seen in cells or lysates may run through a third protein. Some results given as binding are weak or reduced against the parent protein; the word gives no strength.

For assay [1], the target named is T1, CLAMP (Chromatin linked adapter for MSL proteins) (Drosophila melanogaster (endogenous in S2 and Kc cells)) (UniProt Q9V9N4).
T1 sequence: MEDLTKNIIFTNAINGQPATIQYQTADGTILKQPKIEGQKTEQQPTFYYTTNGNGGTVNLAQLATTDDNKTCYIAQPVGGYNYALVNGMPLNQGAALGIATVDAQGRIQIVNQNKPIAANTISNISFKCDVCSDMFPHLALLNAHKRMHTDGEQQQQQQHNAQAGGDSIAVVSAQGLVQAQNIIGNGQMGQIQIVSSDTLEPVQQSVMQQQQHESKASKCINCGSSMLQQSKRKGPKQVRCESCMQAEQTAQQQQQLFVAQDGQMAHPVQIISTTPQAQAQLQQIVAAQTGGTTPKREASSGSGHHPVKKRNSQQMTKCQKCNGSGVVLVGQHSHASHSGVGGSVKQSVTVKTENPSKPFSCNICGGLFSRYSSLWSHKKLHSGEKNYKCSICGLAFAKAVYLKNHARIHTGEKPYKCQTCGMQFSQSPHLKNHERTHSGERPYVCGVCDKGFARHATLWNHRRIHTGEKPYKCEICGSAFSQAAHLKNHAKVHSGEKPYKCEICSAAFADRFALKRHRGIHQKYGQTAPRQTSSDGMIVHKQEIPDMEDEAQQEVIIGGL
The assay can be described thus: co-IP.

The target in assay [2] is T1, CLAMP (Chromatin linked adapter for MSL proteins) (Drosophila melanogaster (endogenous in S2 and Kc cells)). The assay can be described thus: co-IP. This is another data set of the same source.

B1: Squid (protein, UniProt Q08473 1-344)
chain: MAENKQVDTEINGEDFTKDVTADGPGSENGDAGAAGSTNGSSDNQSAASGQRDDDRKLFVGGLSWETTEKELRDHFGKYGEIESINVKTDPQTGRSRGFAFIVFTNTEAIDKVSAADEHIINSKKVDPKKAKARHGKIFVGGLTTEISDEEIKTYFGQFGNIVEVEMPFDKQKSQRKGFCFITFDSEQVVTDLLKTPKQKIAGKEVDVKRATPKPENQMMGGMRGGPRGGMRGGRGGYGGRGGYNNQWDGQGSYGGYGGGYGGYGAGGYGDYYAGGYYNGYDYGYDGYGYGGGFEGNGYGGGGGGNMGGGRGGPRGGGGPKGGGGFNGGKQRGGGGRQQRHQPY
Regarding B1, the binding entry in assay [1] is “binds”.

B2: Hrb27C (protein, UniProt P48809 1-421)
chain: MEEDERGKLFVGGLSWETTQENLSRYFCRFGDIIDCVVMKNNESGRSRGFGFVTFADPTNVNHVLQNGPHTLDGRTIDPKPCNPRTLQKPKKGGGYKVFLGGLPSNVTETDLRTFFNRYGKVTEVVIMYDQEKKKSRGFGFLSFEEESSVEHVTNERYINLNGKQVEIKKAEPRDGSGGQNSNNSTVGGAYGKLGNECSHWGPHHAPINMMQGQNGQMGGPPLNMPIGAPNMMPGYQGWGTSPQQQQYGYGNSGPGSYQGWGAPPGPQGPPPQWSNYAGPQQTQGYGGYDMYNSTSTGAPSGPSGGGSWNSWNMPPNSAGPTGAPGAGAGTATDMYSRAQAWATGGPSTTGPVGGMPRTGPGNSASKSGSEYDYGGYGSGYDYDYSNYVKQEGASNYGAGPRSAYGNDSSTQPPYATSQAV
On to B2, for which the binding entry in assay [2] and in assay [1] was “binds” in each case.

The record behind these values is article doi:10.1101/2021.03.18.436074.
